Laboratory results: PubChem BioAssay AID1259405 (NCATS, 2018)

- Test: 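Knock-downs that lift recombinant protein yield in hamster ovary cells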 (primary screen)
- Cell system: Chinese hamster CHO-K1 ovary cells with stable secreted eGFP expression
- Reagent: single siRNA against mouse genes, 0.8 pmol siRNA per well (2 µl of 400 nM stock)
- Duration: 3 days
- Measurement: 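Percent of the per-plate non-targeting control median for intracellular GFP per well by laser scanning cytometry and for cell viability by ATP luminescence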
- Direction: GFP, % of control: higher = more GFP per well, higher productivity; viability (ATP), % of control: higher = more viable cells (more ATP)
- Hit rule: 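a knock-down is called active if GFP reaches 120% or more of non-targeting control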
The deposit covers about 50,000 reagents; below is a part drawn at random. About 4,000 of them (8%) were called active. 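Mouse siRNA library applied to hamster cells; one well for each siRNA.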 Reagents against one gene are numbered here.

gene | reagent | GFP, % of control | viability (ATP), % of control | outcome
Cox15 (cytochrome c oxidase assembly protein 15) | 1 | 66.9 | 71.3 | inactive
Cox15 (cytochrome c oxidase assembly protein 15) | 2 | 80.4 | 73 | inactive
Cox15 (cytochrome c oxidase assembly protein 15) | 3 | 95.7 | 104 | inactive
Slc10a6 | 1 | 99.7 | 78.8 | inactive
Slc10a6 | 2 | 51.5 | 43.3 | inactive
Slc10a6 | 3 | 96.7 | 86.3 | inactive
Rtl8c (retrotransposon Gag like 8C) | 1 | 82 | 57.5 | inactive
Rtl8c (retrotransposon Gag like 8C) | 2 | 72.4 | 102 | inactive
Rtl8c (retrotransposon Gag like 8C) | 3 | 102 | 78.2 | inactive
Fbxl20 (F-box and leucine-rich repeat protein 20) | 1 | 70.7 | 72.2 | inactive
Fbxl20 (F-box and leucine-rich repeat protein 20) | 2 | 45.8 | 50.8 | inactive
Fbxl20 (F-box and leucine-rich repeat protein 20) | 3 | 97.7 | 94.1 | inactive
Hhipl2 (hedgehog interacting protein-like 2) | 1 | 86.3 | 87 | inactive
Hhipl2 (hedgehog interacting protein-like 2) | 2 | 80.6 | 79 | inactive
Hhipl2 (hedgehog interacting protein-like 2) | 3 | 105 | 151 | inactive
Hddc2 (HD domain containing 2) | 1 | 52 | 78.3 | inactive
Hddc2 (HD domain containing 2) | 2 | 108 | 82.4 | inactive
Hddc2 (HD domain containing 2) | 3 | 70.5 | 53.1 | inactive
Slc27a1 | 1 | 110 | 58.1 | inactive
Slc27a1 | 2 | 84.4 | 79.4 | inactive
Slc27a1 | 3 | 86.7 | 124 | inactive
Lcn10 (lipocalin 10) | 1 | 66.6 | 64.7 | inactive
Lcn10 (lipocalin 10) | 2 | 94.5 | 76.5 | inactive
Lcn10 (lipocalin 10) | 3 | 56.4 | 47.8 | inactive
Trappc4 (trafficking protein particle complex 4) | 1 | 127 | 120 | active
Trappc4 (trafficking protein particle complex 4) | 2 | 78.2 | 84 | inactive
Or8g52 (olfactory receptor family 8 subfamily G member 52) | 1 | 66.8 | 86.6 | inactive
Or8g52 (olfactory receptor family 8 subfamily G member 52) | 2 | 77.5 | 50.8 | inactive
Or8g52 (olfactory receptor family 8 subfamily G member 52) | 3 | 56.1 | 63.9 | inactive
Cd151 (CD151 antigen) | 1 | 67.5 | 61.4 | inactive
Cd151 (CD151 antigen) | 2 | 53.1 | 61.1 | inactive
Cd151 (CD151 antigen) | 3 | 66.4 | 58.9 | inactive
Slc32a1 | 1 | 44.3 | 69.7 | inactive
Slc32a1 | 2 | 87.1 | 94.7 | inactive
Slc32a1 | 3 | 92.7 | 78.9 | inactive
Plekha1 (pleckstrin homology domain containing A1) | 1 | 29 | 30.4 | inactive
Plekha1 (pleckstrin homology domain containing A1) | 2 | 36.7 | 37.6 | inactive
Plekha1 (pleckstrin homology domain containing A1) | 3 | 53.3 | 49.1 | inactive
Hyou1 (hypoxia up-regulated 1) | 1 | 72.6 | 69.1 | inactive
Hyou1 (hypoxia up-regulated 1) | 2 | 69.9 | 62.6 | inactive
Hyou1 (hypoxia up-regulated 1) | 3 | 86.9 | 93.2 | inactive
Upk3a (uroplakin 3A) | 1 | 90.9 | 50.2 | inactive
Upk3a (uroplakin 3A) | 2 | 31.9 | 62.6 | inactive
Upk3a (uroplakin 3A) | 3 | 82.3 | 88.7 | inactive
Tpd52 (tumor protein D52) | 1 | 55.4 | 78 | inactive
Tpd52 (tumor protein D52) | 2 | 61.1 | 85.1 | inactive
Tpd52 (tumor protein D52) | 3 | 85.6 | 133 | inactive
Rnf149 (ring finger protein 149) | 1 | 87.2 | 77.7 | inactive
Rnf149 (ring finger protein 149) | 2 | 52.5 | 47.2 | inactive
Rnf149 (ring finger protein 149) | 3 | 46.5 | 58 | inactive
Wnt16 (WNT family member 16) | 1 | 66.8 | 75.2 | inactive
Wnt16 (WNT family member 16) | 2 | 73.8 | 68.7 | inactive
Wnt16 (WNT family member 16) | 3 | 78.4 | 79.5 | inactive
Rbms3 (RNA binding motif, single stranded interacting protein) | 1 | 20.7 | 26.2 | inactive
Rbms3 (RNA binding motif, single stranded interacting protein) | 2 | 135 | 96.7 | active
Rbms3 (RNA binding motif, single stranded interacting protein) | 3 | 61.6 | 52.7 | inactive
Prpf38b | 1 | 59.2 | 78.6 | inactive
Prpf38b | 2 | 36.2 | 67.4 | inactive
Prpf38b | 3 | 80 | 107 | inactive
Ftl1 (ferritin light polypeptide 1) | 1 | 73.9 | 78.4 | inactive
Ftl1 (ferritin light polypeptide 1) | 2 | 58.7 | 36.9 | inactive
Ftl1 (ferritin light polypeptide 1) | 3 | 174 | 29.9 | active
Dusp26 (dual specificity phosphatase 26) | 1 | 56.6 | 80 | inactive
Dusp26 (dual specificity phosphatase 26) | 2 | 96.2 | 106 | inactive
Spmip5 (sperm microtubule inner protein 5) | 1 | 92.9 | 89 | inactive
Spmip5 (sperm microtubule inner protein 5) | 2 | 80.8 | 98.8 | inactive
Spmip5 (sperm microtubule inner protein 5) | 3 | 78.7 | 128 | inactive
Dnajc17 (DnaJ heat shock protein family (Hsp40) member C17) | 1 | 55.3 | 46.3 | inactive
Dnajc17 (DnaJ heat shock protein family (Hsp40) member C17) | 2 | 73.9 | 96.3 | inactive
Dnajc17 (DnaJ heat shock protein family (Hsp40) member C17) | 3 | 59.1 | 54.4 | inactive
Hmga2 (high mobility group AT-hook 2) | 1 | 73.9 | 62.9 | inactive
Hmga2 (high mobility group AT-hook 2) | 2 | 54.3 | 61.8 | inactive
Hmga2 (high mobility group AT-hook 2) | 3 | 73.1 | 55.6 | inactive
Hexa (hexosaminidase A) | 1 | 64.9 | 77.9 | inactive
Hexa (hexosaminidase A) | 2 | 70.3 | 83.3 | inactive
Hexa (hexosaminidase A) | 3 | 188 | 77.3 | active
Psma1 (proteasome subunit alpha 1) | 1 | 19.2 | 6.13 | inactive
Psma1 (proteasome subunit alpha 1) | 2 | 120 | 81 | inactive
Psma1 (proteasome subunit alpha 1) | 3 | 22.3 | 13.5 | inactive
Usp22 (ubiquitin specific peptidase 22) | 1 | 79.7 | 88.9 | inactive
Usp22 (ubiquitin specific peptidase 22) | 2 | 95.3 | 89.7 | inactive
Usp22 (ubiquitin specific peptidase 22) | 3 | 32 | 44.1 | inactive
Adamts15 (ADAM metallopeptidase with thrombospondin type 1 motif 15) | 1 | 114 | 110 | inactive
Adamts15 (ADAM metallopeptidase with thrombospondin type 1 motif 15) | 2 | 135 | 94 | active
Adamts15 (ADAM metallopeptidase with thrombospondin type 1 motif 15) | 3 | 85.9 | 61.6 | inactive

3 entries from above, limited to “viability (ATP), % of control”.
Dusp26 (dual specificity phosphatase 26) #1: 80
Dusp26 (dual specificity phosphatase 26) #2: 106
Spmip5 (sperm microtubule inner protein 5) #1: 89
